For experiment [1], the system named is SARS-CoV-2 (hCoV-19/USA-WA1/2020) in Calu-3 cells. Nature of the experiment: microbe, parasite or virus in culture. Type of experiment: cell-based. To be noted: Severe acute respiratory syndrome coronavirus 2, Calu-3; MOI 0.01, 72 h, 2% FBS.
Experiment [2] deals with SARS-CoV-2 (hCoV-19/USA-WA1/2020) in Caco-2 cells. Nature of the experiment: microbe, parasite or virus in culture. To be noted: Severe acute respiratory syndrome coronavirus 2, Caco-2, 72 h, read-out: Caco-2 SARS-CoV-2 EC50.

Turning to `CC(C)OC(=O)C(C)(C)Oc1ccc(C(=O)c2ccc(Cl)cc2)cc1` [Fenofibrate], the EC50 in experiment [1] and in experiment [2] was above 100 µM in each case.
